Results taken from the supplement of paper PMC8728848.
The other results are listed elsewhere or left out.

How the values were obtained:
Assay in all cases: glycan array binding signal (z-score within array); higher = stronger binding
Conditions in all cases: glycan notation: IUPAC condensed, linker removed
[1] = target: Neu5Ac(a2-6)Gal(b1-4)GlcNAc(b1-3)Gal(b1-4)GlcNAc(b1-3)Gal(b1-4)GlcNAc(b1-2)Man(a1-3)[Neu5Ac(a2-6)Gal(b1-4)GlcNAc(b1-3)Gal(b1-4)GlcNAc(b1-3)Gal(b1-4)GlcNAc(b1-2)Man(a1-6)]GalNAc
Summary of the method: (§1)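 The Consortium for Functional Glycomics database supplied 3228 glycan arrays, of which those lacking an available protein sequence were dropped. The binding signal, a within-array Z-score, was averaged across arrays of the same protein sequence and across linkers. Negative scores can be read as non-binding.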

[2] = target: Neu5Ac(a2-6)Gal(b1-4)GlcNAc(b1-3)Gal(b1-4)GlcNAc(b1-3)GalNAc
Summary of the method: as §1

[3] = target: Neu5Ac(a2-6)Gal(b1-4)GlcNAc(b1-3)Gal(b1-4)GlcNAc(b1-3)[Neu5Ac(a2-6)Gal(b1-4)GlcNAc(b1-3)Gal(b1-4)GlcNAc(b1-6)]GalNAc
Summary of the method: as §1

[4] = target: Neu5Ac(a2-6)Gal(b1-4)GlcNAc(b1-3)Gal(b1-4)GlcNAc(b1-6)[Gal(b1-3)]GalNAc
Summary of the method: as §1

[5] = target: Neu5Ac(a2-6)Gal(b1-4)GlcNAc(b1-3)Gal(b1-4)[Fuc(a1-3)]GlcNAc(b1-3)Gal(b1-4)[Fuc(a1-3)]GlcNAc
Summary of the method: as §1

[6] = target: Neu5Ac(a2-6)Gal(b1-4)GlcNAc(b1-3)GalNAc
Summary of the method: as §1

[7] = target: Neu5Ac(a2-6)Gal(b1-4)GlcNAc(b1-3)[Neu5Ac(a2-6)Gal(b1-4)GlcNAc(b1-6)]GalNAc
Summary of the method: as §1

[8] = target: Neu5Ac(a2-6)Gal(b1-4)GlcNAc(b1-6)GalNAc
Summary of the method: as §1

[9] = target: Neu5Ac(a2-6)Gal(b1-4)GlcNAc(b1-6)[Gal(b1-3)GlcNAc(b1-3)]Gal(b1-4)Glc
Summary of the method: as §1

[10] = target: Neu5Ac(a2-6)Gal(b1-4)GlcNAc(b1-6)[Gal(b1-3)]GalNAc
Summary of the method: as §1

[11] = target: Neu5Ac(a2-6)Gal(b1-4)GlcNAc6S
Summary of the method: as §1

Neu5Ac(a2-6)GalNAc = target: Neu5Ac(a2-6)GalNAc
Summary of the method: as §1

[12] = target: Neu5Ac(a2-6)GalNAc(b1-4)GlcNAc
Summary of the method: as §1

[13] = target: Neu5Ac(a2-6)GalNAc(b1-4)GlcNAc6S
Summary of the method: as §1

[14] = target: Neu5Ac(a2-6)GlcNAc(b1-4)GlcNAc
Summary of the method: as §1

[15] = target: Neu5Ac(a2-6)GlcNAc(b1-4)GlcNAc(b1-4)GlcNAc
Summary of the method: as §1

Neu5Ac(a2-8)Neu5Ac = target: Neu5Ac(a2-8)Neu5Ac
Summary of the method: as §1

[16] = target: Neu5Ac(a2-8)Neu5Ac(a2-3)Gal(b1-3)GalNAc(b1-4)[Neu5Ac(a2-3)]Gal(b1-4)Glc
Summary of the method: as §1

[17] = target: Neu5Ac(a2-8)Neu5Ac(a2-3)Gal(b1-3)GalNAc(b1-4)[Neu5Ac(a2-8)Neu5Ac(a2-3)]Gal(b1-4)Glc
Summary of the method: as §1

[18] = target: Neu5Ac(a2-8)Neu5Ac(a2-3)Gal(b1-4)Glc
Summary of the method: as §1

[19] = target: Neu5Ac(a2-8)Neu5Ac(a2-3)Gal(b1-4)GlcNAc
Summary of the method: as §1

[20] = target: Neu5Ac(a2-8)Neu5Ac(a2-3)[Gal(b1-3)GalNAc(b1-4)]Gal(b1-4)Glc
Summary of the method: as §1

[21] = target: Neu5Ac(a2-8)Neu5Ac(a2-3)[GalNAc(b1-4)]Gal(b1-4)Glc
Summary of the method: as §1

[22] = target: Neu5Ac(a2-8)Neu5Ac(a2-8)Neu5Ac
Summary of the method: as §1

[23] = target: Neu5Ac(a2-8)Neu5Ac(a2-8)Neu5Ac(a2-3)Gal(b1-4)Glc
Summary of the method: as §1

[24] = target: Neu5Ac(a2-8)Neu5Ac(a2-8)Neu5Ac(a2-3)[Gal(b1-3)GalNAc(b1-4)]Gal(b1-4)Glc
Summary of the method: as §1

[25] = target: Neu5Ac(a2-8)Neu5Ac(a2-8)Neu5Ac(a2-3)[GalNAc(b1-4)]Gal(b1-4)Glc
Summary of the method: as §1

[26] = target: Neu5Ac(a2-8)Neu5Ac(a2-8)Neu5Ac(a2-8)Neu5Ac(a2-3)[GalNAc(b1-4)]Gal(b1-4)Glc
Summary of the method: as §1

[27] = target: Neu5Ac(a2-8)Neu5Gc(a2-3)Gal(b1-4)GlcNAc
Summary of the method: as §1

[28] = target: Neu5Ac(b2-6)Gal(b1-4)GlcNAc
Summary of the method: as §1

Neu5Ac(b2-6)GalNAc = target: Neu5Ac(b2-6)GalNAc
Summary of the method: as §1

[29] = target: Neu5Ac9Ac(a2-3)Gal(b1-3)GlcNAc
Summary of the method: as §1

[30] = target: Neu5Ac9Ac(a2-3)Gal(b1-4)GlcNAc
Summary of the method: as §1

[31] = target: Neu5Ac9Ac(a2-6)Gal(b1-4)GlcNAc
Summary of the method: as §1

[32] = target: Neu5Gc(a2-3)Gal(b1-3)GlcNAc
Summary of the method: as §1

[33] = target: Neu5Gc(a2-3)Gal(b1-3)[Fuc(a1-4)]GlcNAc
Summary of the method: as §1

Neu5Gc(a2-3)Gal(b1-4)Glc = target: Neu5Gc(a2-3)Gal(b1-4)Glc
Summary of the method: as §1

[34] = target: Neu5Gc(a2-3)Gal(b1-4)GlcNAc
Summary of the method: as §1

[35] = target: Neu5Gc(a2-3)Gal(b1-4)GlcNAc(b1-3)Gal(b1-4)GlcNAc(b1-2)Man(a1-3)[Neu5Gc(a2-3)Gal(b1-4)GlcNAc(b1-3)Gal(b1-4)GlcNAc(b1-2)Man(a1-6)]Man(b1-4)GlcNAc(b1-4)GlcNAc
Summary of the method: as §1

[36] = target: Neu5Gc(a2-3)Gal(b1-4)[Fuc(a1-3)]GlcNAc
Summary of the method: as §1

[37] = target: Neu5Gc(a2-6)Gal(b1-4)GlcNAc
Summary of the method: as §1

Neu5Gc(a2-6)GalNAc = target: Neu5Gc(a2-6)GalNAc
Summary of the method: as §1

[38] = target: Neu5Gc(a2-8)Neu5Ac(a2-3)Gal(b1-4)GlcNAc
Summary of the method: as §1

[39] = target: Neu5Gc(a2-8)Neu5Gc(a2-3)Gal(b1-4)GlcNAc
Summary of the method: as §1

[40] = target: Neu5Gc(a2-8)Neu5Gc(a2-3)Gal(b1-4)GlcNAc(b1-3)Gal(b1-4)GlcNAc
Summary of the method: as §1

B1: FimA (Actinomyces oris) (protein)
chain: MHHHHHHSSGVDLGTENLYFQSNAETPNYGNIKTDATGSLVIHKHLTGGGKDIGTPTGTAQNADDKGPAVEGVVFTAYPITDINLKDPAGWDTISNLSRTGVPDSACANPAAPTLGAHQFGTPKVSPATTKEGLATITEMPVQAYLVCETTTPGDIVQKAKPFVVTIPHPNTAAGADGQWIYDVNVYPKNEAIDVDKTIQAQKLNGYGVGSLIKFPVESTAPTLDAKSFYKYFQLKDTLDERLSEVTATDVSLEGTPLQPTDYKVETKQQTVTVTFTAEGLKKIKAAPGKKVSAVFQGKVTKAGNGAITNRAQVISDTLYAEQPPTPETPPTDPENPPTSDEVISRWGDLSIKKVDTHQQGQTKAGLQGAQFQLYKAKNAYANTCSNEKEGAPIAINGQTTLTTDAQGAIDIKGLFISDSIDGADRDNQVNAMERCYVLVETKAPAGYVLPAGNGAATPVKVKAGEETTDNVTVENTKQSVPGLPLTG
glycan array binding signal (z-score) [1]: 0.337
glycan array binding signal (z-score) [2]: -0.794
glycan array binding signal (z-score) [3]: -0.542
glycan array binding signal (z-score) [4]: -0.595
glycan array binding signal (z-score) [5]: 0.922
glycan array binding signal (z-score) [6]: 1.08
glycan array binding signal (z-score) [7]: -0.508
glycan array binding signal (z-score) [8]: 0.21
glycan array binding signal (z-score) [9]: -0.606
glycan array binding signal (z-score) [10]: 0.39
glycan array binding signal (z-score) [11]: 0.065
glycan array binding signal (z-score) (Neu5Ac(a2-6)GalNAc): -0.296
glycan array binding signal (z-score) [12]: -0.397
glycan array binding signal (z-score) [13]: -0.147
glycan array binding signal (z-score) [14]: 0.737
glycan array binding signal (z-score) [15]: 1.38
glycan array binding signal (z-score) (Neu5Ac(a2-8)Neu5Ac): 0.181
glycan array binding signal (z-score) [16]: -0.825
glycan array binding signal (z-score) [17]: -0.234
glycan array binding signal (z-score) [18]: -0.282
glycan array binding signal (z-score) [19]: 0.185
glycan array binding signal (z-score) [20]: 0.136
glycan array binding signal (z-score) [21]: -0.366
glycan array binding signal (z-score) [22]: 0.69
glycan array binding signal (z-score) [23]: 0.582
glycan array binding signal (z-score) [24]: -0.63
glycan array binding signal (z-score) [25]: -0.278
glycan array binding signal (z-score) [26]: 1.45
glycan array binding signal (z-score) [27]: 0.433
glycan array binding signal (z-score) [28]: -0.342
glycan array binding signal (z-score) (Neu5Ac(b2-6)GalNAc): -0.85
glycan array binding signal (z-score) [29]: -0.549
glycan array binding signal (z-score) [30]: -0.851
glycan array binding signal (z-score) [31]: -0.577
glycan array binding signal (z-score) [32]: -0.744
glycan array binding signal (z-score) [33]: 0.672
glycan array binding signal (z-score) (Neu5Gc(a2-3)Gal(b1-4)Glc): -0.301
glycan array binding signal (z-score) [34]: -0.147
glycan array binding signal (z-score) [35]: -0.219
glycan array binding signal (z-score) [36]: -0.319
glycan array binding signal (z-score) [37]: -0.016
glycan array binding signal (z-score) (Neu5Gc(a2-6)GalNAc): 0.563
glycan array binding signal (z-score) [38]: -0.306
glycan array binding signal (z-score) [39]: -0.718
glycan array binding signal (z-score) [40]: 0.322
